Source: PMC5674975
No constants are given. Whether binding was seen depends on the method and setting. In cells and extracts the contact can be indirect. Some binding calls cover weakened binding; strength is not graded here.

Molecular target: T1, vascular endothelial cadherin (human (endogenous in HUVEC)), P33151
T1 chain: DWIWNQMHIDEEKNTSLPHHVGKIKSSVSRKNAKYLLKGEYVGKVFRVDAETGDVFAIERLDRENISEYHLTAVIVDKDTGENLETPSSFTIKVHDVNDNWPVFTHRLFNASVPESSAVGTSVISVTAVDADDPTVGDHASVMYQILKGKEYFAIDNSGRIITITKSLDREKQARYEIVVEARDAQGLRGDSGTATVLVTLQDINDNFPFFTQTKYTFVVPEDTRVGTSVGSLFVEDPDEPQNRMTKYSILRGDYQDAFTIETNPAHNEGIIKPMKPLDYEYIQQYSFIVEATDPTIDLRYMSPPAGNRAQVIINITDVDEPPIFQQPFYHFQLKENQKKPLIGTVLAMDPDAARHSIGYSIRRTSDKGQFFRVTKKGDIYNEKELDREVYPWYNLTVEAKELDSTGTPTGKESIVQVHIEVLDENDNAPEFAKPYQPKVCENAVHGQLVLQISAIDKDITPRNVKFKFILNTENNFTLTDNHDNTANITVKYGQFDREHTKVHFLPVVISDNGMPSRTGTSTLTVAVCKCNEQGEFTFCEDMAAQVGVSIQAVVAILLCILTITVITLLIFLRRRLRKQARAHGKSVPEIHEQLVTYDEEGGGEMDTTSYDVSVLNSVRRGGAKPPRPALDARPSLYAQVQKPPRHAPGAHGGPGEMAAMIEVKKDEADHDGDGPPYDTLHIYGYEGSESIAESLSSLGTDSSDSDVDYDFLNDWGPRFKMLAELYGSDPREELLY
Assay: co-IP; HUVEC lysed in RIPA buffer; VE-cad antibody and protein A-agarose, overnight at 4°C; blot for β-catenin and VE-cad; mIgG as control; control cells, also cells overexpressing DN-PKC-β, DN-PKC-α or DN-PKC-δ with high glucose (Figures 1C, 3D)
Settings: remark: other sources report otherwise

B1: β-catenin, P35222 1-781 (protein)
chain: MATQADLMELDMAMEPDRKAAVSHWQQQSYLDSGIHSGATTTAPSLSGKGNPEEEDVDTSQVLYEWEQGFSQSFTQEQVADIDGQYAMTRAQRVRAAMFPETLDEGMQIPSTQFDAAHPTNVQRLAEPSQMLKHAVVNLINYQDDAELATRAIPELTKLLNDEDQVVVNKAAVMVHQLSKKEASRHAIMRSPQMVSAIVRTMQNTNDVETARCTAGTLHNLSHHREGLLAIFKSGGIPALVKMLGSPVDSVLFYAITTLHNLLLHQEGAKMAVRLAGGLQKMVALLNKTNVKFLAITTDCLQILAYGNQESKLIILASGGPQALVNIMRTYTYEKLLWTTSRVLKVLSVCSSNKPAIVEAGGMQALGLHLTDPSQRLVQNCLWTLRNLSDAATKQEGMEGLLGTLVQLLGSDDINVVTCAAGILSNLTCNNYKNKMMVCQVGGIEALVRTVLRAGDREDITEPAICALRHLTSRHQEAEMAQNAVRLHYGLPVVVKLLHPPSHWPLIKATVGLIRNLALCPANHAPLREQGAIPRLVQLLVRAHQDTQRRTSMGGTQQQFVEGVRMEEIVEGCTGALHILARDVHNRIVIRGLNTIPLFVQLLYSPIENIQRVAAGVLCELAQDKEAAEAIEAEGATAPLTELLHSRNEGVATYAAAVLFRMSEDKPQDYKKRLSVELTSSLFRTEPMAWNETADLGLDIGAQGEPLGYRQDDPSYRSFHSGGYGQDALGMDPMMEHEMGGHHPGADYPVDGLPDLGHAQDLMDGLPPGDSNQLAWFDTDL
- binding: binds
